{"source": "PubChem BioAssay AID1159578 (Peter MacCallum Cancer Centre, 2015)", "assay": "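Knock-downs that alter how fast lymphatic endothelial cells migrate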 (primary screen)", "cells": "human lymphatic endothelial cells", "reagents": "siRNA pool against human genes, 40 nM", "timing": "48 h after transfection", "read-out": "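High-content imaging of dye-stained cells in a scratch assay measures filled wound area and nuclei per well; duplicate means given as ratio to mock and robust z-score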", "direction": "migration robust z-score: higher = faster migration into the scratch; nuclei per well: higher = more cells in the well", "hit rule": "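Migration changed when robust z exceeds 2 or falls below -2 and mean nuclei number is at least 3300; otherwise not called changed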", "meaning of the calls": "active = migration changed; inactive = no migration change, or too few cells", "note": "The deposit covers about 18,000 reagents; this is a part drawn at random. About 1,030 of them (5.7%) were called active. 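Inactive calls also include pools with fewer than 3300 nuclei, whose migration was not assessed.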 Raw values vary from plate to plate and are shown uncorrected. Entries without a mark were called inactive. Not all columns of the deposit are shown."}
{"gene knocked down":"LZTS3","migration robust z-score":"-2.46 (active)","nuclei per well, duplicate mean":3960}
{"gene knocked down":"CYP4V2","migration robust z-score":-0.85,"nuclei per well, duplicate mean":5569}
{"gene knocked down":"GTF3C4","migration robust z-score":0.13,"nuclei per well, duplicate mean":5335}
{"gene knocked down":"RAB2A","migration robust z-score":-0.64,"nuclei per well, duplicate mean":5988}

Active calls, of those listed so far:
{"gene knocked down":"LZTS3","migration robust z-score":"-2.46 (active)","nuclei per well, duplicate mean":3960}

Next reagents:
{"gene knocked down":"PNRC2","migration robust z-score":0.84,"nuclei per well, duplicate mean":6248}
{"gene knocked down":"FAM170A","migration robust z-score":0.6,"nuclei per well, duplicate mean":5204}
{"gene knocked down":"KPNA4","migration robust z-score":0.83,"nuclei per well, duplicate mean":6246}
{"gene knocked down":"EVI5L","migration robust z-score":0.99,"nuclei per well, duplicate mean":6576}
{"gene knocked down":"RHOF","migration robust z-score":0.8,"nuclei per well, duplicate mean":6245}
{"gene knocked down":"TMEM258","migration robust z-score":-0.79,"nuclei per well, duplicate mean":5606}
{"gene knocked down":"SNX31","migration robust z-score":0.46,"nuclei per well, duplicate mean":5418}
{"gene knocked down":"RHAG","migration robust z-score":-2.1,"nuclei per well, duplicate mean":3192}
{"gene knocked down":"CABS1","migration robust z-score":-0.68,"nuclei per well, duplicate mean":5613}
{"gene knocked down":"CD200R1","migration robust z-score":-0.85,"nuclei per well, duplicate mean":5546}
